Test results as given in PubChem BioAssay AID248 (DTP/NCI, 2004).
The list is a part of this screen's results and no random one: it gathers tests that were run many times, whatever their T/C, doses with no T/C, and many T/C values between a quarter and a half above the control. Other doses and runs of a compound stand elsewhere. T/C gives the treated animals as a percentage of the vehicle group. Some doses have a count of surviving animals in place of a T/C: the source holds a T/C of zero for them, seemingly a mark for toxic or unscored doses. Some doses without a T/C left all or most animals alive at the check, yet need not have been tolerated: the source hardly ever lists a survival T/C far under the control, and the zero likely stands for such cases as well. Counts of survivors are from the toxicity check (mostly the fifth day) where no day follows; animals may have died later. Schedule codes are those of the source, taken here to give the interval after Q, in days (D) or hours (H), and the number of doses after X. Some doses were run more than once; the values are given in rising order. For survival time, this PubChem deposit counts one and a half times the control or more as active, and values a quarter to a half above the control carry no call in these data; other NCI protocols may use other cut-offs.

System: L1210 leukemia ip in BDF1 mice, survival T/C
Assay: NCI In Vivo Anticancer Drug Screen. Data for tumor model L1210 Leukemia (intraperitoneal) in B6D2F1 (BDF1) mice
Conditions: T/C endpoint: mean survival time, higher T/C = longer survival
[1] = dose: 400.0 mg/kg/injection, schedule: Q04DX003 (ip), vehicle: saline with Tween-80

O=[N+]([O-])c1ccc(F)c(Cl)c1
survivor count (dose: 200.0 mg/kg/injection, schedule: Q01DX009 (ip), vehicle: other): 4 of 6 | survivor count (dose: 400.0 mg/kg/injection, schedule: Q01DX009 (ip), vehicle: other): 0 of 6

O=C(C=C(C(F)(F)F)C(F)(F)F)c1ccc([N+](=O)[O-])cc1
survivor count (dose: 12.5 mg/kg/injection, schedule: Q01DX009 (ip), vehicle: other): 1 of 6 | survivor count (dose: 50.0 mg/kg/injection, schedule: Q04DX003 (ip), vehicle: other): 1 of 6 | survivor count (dose: 100.0 mg/kg/injection, schedule: Q04DX003 (ip), vehicle: other): 4 of 6 | survivor count (dose: 200.0 mg/kg/injection, schedule: Q04DX003 (ip), vehicle: other): 3 of 6 | survivor count (dose: 400.0 mg/kg/injection, schedule: Q04DX003 (ip), vehicle: other): 1 of 6

COc1cc(C(=O)CC(O)(C(F)(F)F)C(F)(F)F)cc(OC)c1OC
survivor count (dose: 400.0 mg/kg/injection, schedule: Q01DX001 (ip), vehicle: Klucel (hydroxypropylcellulose) (HPC)): 6 of 6

CC[N+](C)(CC)CCN1c2ccccc2Sc2ccccc21
survivor count (dose: 12.5 mg/kg/injection, schedule: Q04DX003 (ip), vehicle: saline): 6 of 6

C[n+]1c(-c2ccc(Cl)cc2Cl)c2cc(N)ccc2c2ccccc21
survivor count (dose: 50.0 mg/kg/injection, schedule: Q01DX009 (ip), vehicle: water): 6 of 6 | survivor count (dose: 50.0 mg/kg/injection, schedule: Q04DX003 (ip), vehicle: water): 3 of 6 | survivor count (dose: 100.0 mg/kg/injection, schedule: Q04DX003 (ip), vehicle: water): 3 of 6 | survivor count (dose: 200.0 mg/kg/injection, schedule: Q04DX003 (ip), vehicle: water): 1 of 6 | survivor count (dose: 400.0 mg/kg/injection, schedule: Q04DX003 (ip), vehicle: water): 0 of 6

O=C(O)CNC(=O)c1ccc(NC(=S)Nc2ccccc2)cc1
survivor count (dose: 200.0 mg/kg/injection, schedule: Q01DX009 (ip), vehicle: Klucel (hydroxypropylcellulose) (HPC)): 5 of 6 | survivor count (dose: 400.0 mg/kg/injection, schedule: Q01DX009 (ip), vehicle: Klucel (hydroxypropylcellulose) (HPC)): 0 of 6

[Cl][Pt+2][Cl].[NH-]C1CCCC1.[NH-]C1CCCC1
T/C (dose: 80.0 mg/kg/injection, schedule: Q04DX003 (ip), vehicle: Klucel (hydroxypropylcellulose) (HPC)): 141 % of control | survivor count (dose: 320.0 mg/kg/injection, schedule: Q04DX003 (ip), vehicle: Klucel (hydroxypropylcellulose) (HPC)): 5 of 6 | T/C (dose: 640.0 mg/kg/injection, schedule: Q04DX003 (ip), vehicle: Klucel (hydroxypropylcellulose) (HPC)): 127 % of control

C1CCC2(CC1)CCCCC2
survivor count (dose: 100.0 mg/kg/injection, schedule: Q01DX001 (ip), vehicle: saline): 0 of 4 | survivor count (dose: 200.0 mg/kg/injection, schedule: Q01DX001 (ip), vehicle: saline): 0 of 4 | survivor count (dose: 400.0 mg/kg/injection, schedule: Q01DX001 (ip), vehicle: saline): 0 of 4

CCOC(=O)C12CCC(C1=O)C(C)(O)CC2 (stereo unspecified)
survivor count [1]: 1 of 6

COc1ccc(/C=C/c2cccc[n+]2C)cc1
survivor count (dose: 50.0 mg/kg/injection, schedule: Q01DX009 (ip), vehicle: Klucel (hydroxypropylcellulose) (HPC)): 6 of 6 | survivor count (dose: 100.0 mg/kg/injection, schedule: Q04DX003 (ip), vehicle: Klucel (hydroxypropylcellulose) (HPC)): 2 of 6 | survivor count (dose: 200.0 mg/kg/injection, schedule: Q04DX003 (ip), vehicle: Klucel (hydroxypropylcellulose) (HPC)): 0 of 6 | survivor count (dose: 400.0 mg/kg/injection, schedule: Q04DX003 (ip), vehicle: Klucel (hydroxypropylcellulose) (HPC)): 0 of 6

NCCSc1ccccc1
survivor count (dose: 200.0 mg/kg/injection, schedule: Q04DX002 (ip), vehicle: saline with Tween-80): 0 of 3 | survivor count (dose: 400.0 mg/kg/injection, schedule: Q04DX002 (ip), vehicle: saline with Tween-80): 0 of 3

CCCCP(=O)(CCCC)CCP(=O)(CCCC)CCCC
survivor count [1]: 6 of 6

CC(C)[S][Pb]([c]1ccccc1)([c]1ccccc1)[c]1ccccc1
survivor count (dose: 25.0 mg/kg/injection, schedule: Q04DX002 (ip), vehicle: gum acacia): 3 of 3 | survivor count (dose: 50.0 mg/kg/injection, schedule: Q04DX002 (ip), vehicle: gum acacia): 3 of 3 | survivor count (dose: 100.0 mg/kg/injection, schedule: Q04DX002 (ip), vehicle: gum acacia): 1 of 3 and 3 of 3 | survivor count (dose: 200.0 mg/kg/injection, schedule: Q04DX002 (ip), vehicle: gum acacia): 0 of 3 | survivor count (dose: 400.0 mg/kg/injection, schedule: Q04DX002 (ip), vehicle: gum acacia): 0 of 3

COC(=O)C1=C(C(=O)OC)C(C(=O)OC)N2C=CC=CC2=C1C(=O)OC (stereo unspecified)
survivor count (dose: 400.0 mg/kg/injection, schedule: Q01DX001 (ip), vehicle: carboxymethylcellulose (CMC)): 2 of 4
